Experiment [1] deals with p300, endogenous in mouse kidney tissue (mouse (endogenous in kidney tissue)) (UniProt B2RWS6). In words: proximity ligation; Duolink PLA with anti-p300 and anti-PPM1K antibodies on paraffin-embedded mouse kidney tissue, sham versus UUO.
In experiment [2] the target is HA-tagged p300, overexpressed in HK2 cells (UniProt Q09472). As to the kind of experiment: co-IP; HK2 cells overexpressing HA-tagged p300 and Flag-tagged PPM1K, with or without TGFβ; lysates (0.2% Triton X-100, 150 mM NaCl, 50 mM Tris HCl pH 7.4) rotated with HA-magnetic beads 24 h at 4 °C.
The target in experiment [3] is p300 in HK2 cells (proximity ligation assay) (human (endogenous in HK2)) (UniProt Q09472). As to the kind of experiment: proximity ligation; Duolink PLA with anti-p300 and anti-PPM1K antibodies on fixed, permeabilised HK2 cells, with or without TGFβ.
For experiment [4], the target named is p300 (histone acetyltransferase EP300), HA-tagged, in vitro translated (UniProt Q09472). As to the kind of experiment: co-IP; screen of multiple phosphatases against p300 by in vitro transcription/translation (TNT T7 kit) and immunoprecipitation.

Sequences of proteins named here, by UniProt entry; tags and fusion partners are left off.
UniProt B2RWS6: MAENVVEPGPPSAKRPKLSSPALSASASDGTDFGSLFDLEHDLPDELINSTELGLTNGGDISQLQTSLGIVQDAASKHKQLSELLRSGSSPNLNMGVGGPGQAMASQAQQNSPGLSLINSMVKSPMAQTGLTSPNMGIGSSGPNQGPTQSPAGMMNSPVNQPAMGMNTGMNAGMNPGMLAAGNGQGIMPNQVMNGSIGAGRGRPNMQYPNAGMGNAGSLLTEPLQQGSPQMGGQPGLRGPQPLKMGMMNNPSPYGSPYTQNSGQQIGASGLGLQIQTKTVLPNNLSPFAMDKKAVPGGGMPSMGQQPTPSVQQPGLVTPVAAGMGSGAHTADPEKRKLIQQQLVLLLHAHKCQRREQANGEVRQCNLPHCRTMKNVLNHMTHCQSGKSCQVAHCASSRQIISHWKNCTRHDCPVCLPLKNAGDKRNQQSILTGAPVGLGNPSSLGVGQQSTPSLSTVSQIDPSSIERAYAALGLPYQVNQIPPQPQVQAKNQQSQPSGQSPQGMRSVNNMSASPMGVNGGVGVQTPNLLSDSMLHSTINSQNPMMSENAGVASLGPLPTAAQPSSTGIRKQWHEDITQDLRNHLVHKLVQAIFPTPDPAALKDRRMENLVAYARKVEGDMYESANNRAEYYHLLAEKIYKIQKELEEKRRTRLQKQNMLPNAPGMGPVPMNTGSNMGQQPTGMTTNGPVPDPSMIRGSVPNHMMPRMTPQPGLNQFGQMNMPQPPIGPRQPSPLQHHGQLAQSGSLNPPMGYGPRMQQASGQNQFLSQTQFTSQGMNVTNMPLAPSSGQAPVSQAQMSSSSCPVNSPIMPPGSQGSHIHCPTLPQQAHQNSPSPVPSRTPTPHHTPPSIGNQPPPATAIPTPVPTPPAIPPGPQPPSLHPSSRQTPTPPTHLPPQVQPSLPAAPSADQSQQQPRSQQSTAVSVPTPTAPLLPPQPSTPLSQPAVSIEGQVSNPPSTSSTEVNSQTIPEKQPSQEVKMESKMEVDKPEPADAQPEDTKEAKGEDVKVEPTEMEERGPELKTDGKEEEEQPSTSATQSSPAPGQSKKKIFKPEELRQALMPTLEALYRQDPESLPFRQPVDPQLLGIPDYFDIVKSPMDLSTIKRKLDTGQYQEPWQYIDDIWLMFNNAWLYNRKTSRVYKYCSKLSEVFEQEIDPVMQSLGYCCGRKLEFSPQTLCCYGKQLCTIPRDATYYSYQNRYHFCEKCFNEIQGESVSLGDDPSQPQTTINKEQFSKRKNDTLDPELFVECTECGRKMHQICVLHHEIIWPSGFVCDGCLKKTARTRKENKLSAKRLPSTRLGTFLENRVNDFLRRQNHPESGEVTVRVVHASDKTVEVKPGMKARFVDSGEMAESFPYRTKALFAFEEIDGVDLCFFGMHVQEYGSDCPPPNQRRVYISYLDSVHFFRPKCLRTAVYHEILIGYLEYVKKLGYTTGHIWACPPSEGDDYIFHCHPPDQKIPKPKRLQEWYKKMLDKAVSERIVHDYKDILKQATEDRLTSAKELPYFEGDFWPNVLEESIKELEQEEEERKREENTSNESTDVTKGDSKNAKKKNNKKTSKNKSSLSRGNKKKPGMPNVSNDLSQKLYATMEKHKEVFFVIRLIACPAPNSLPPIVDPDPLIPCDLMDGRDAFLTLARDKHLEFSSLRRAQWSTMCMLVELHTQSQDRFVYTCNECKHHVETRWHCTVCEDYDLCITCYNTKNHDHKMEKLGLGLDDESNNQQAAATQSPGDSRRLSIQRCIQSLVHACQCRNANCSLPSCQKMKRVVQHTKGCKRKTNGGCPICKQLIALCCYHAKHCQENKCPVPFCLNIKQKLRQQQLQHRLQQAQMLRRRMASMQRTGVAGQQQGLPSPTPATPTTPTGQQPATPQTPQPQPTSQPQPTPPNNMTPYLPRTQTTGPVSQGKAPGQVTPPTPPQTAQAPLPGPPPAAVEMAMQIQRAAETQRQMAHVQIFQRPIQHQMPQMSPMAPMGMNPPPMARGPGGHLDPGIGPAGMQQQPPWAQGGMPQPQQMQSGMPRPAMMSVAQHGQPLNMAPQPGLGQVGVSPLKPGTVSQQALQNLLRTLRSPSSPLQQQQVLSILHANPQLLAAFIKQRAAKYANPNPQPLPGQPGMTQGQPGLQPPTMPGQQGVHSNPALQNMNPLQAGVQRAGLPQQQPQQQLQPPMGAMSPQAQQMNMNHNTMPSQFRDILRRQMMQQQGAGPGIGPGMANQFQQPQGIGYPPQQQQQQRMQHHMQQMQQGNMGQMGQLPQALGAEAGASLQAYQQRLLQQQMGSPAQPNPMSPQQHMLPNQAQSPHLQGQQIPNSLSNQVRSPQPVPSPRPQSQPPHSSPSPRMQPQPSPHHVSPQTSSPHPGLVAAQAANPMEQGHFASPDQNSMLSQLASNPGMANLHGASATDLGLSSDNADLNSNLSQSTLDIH
UniProt Q09472: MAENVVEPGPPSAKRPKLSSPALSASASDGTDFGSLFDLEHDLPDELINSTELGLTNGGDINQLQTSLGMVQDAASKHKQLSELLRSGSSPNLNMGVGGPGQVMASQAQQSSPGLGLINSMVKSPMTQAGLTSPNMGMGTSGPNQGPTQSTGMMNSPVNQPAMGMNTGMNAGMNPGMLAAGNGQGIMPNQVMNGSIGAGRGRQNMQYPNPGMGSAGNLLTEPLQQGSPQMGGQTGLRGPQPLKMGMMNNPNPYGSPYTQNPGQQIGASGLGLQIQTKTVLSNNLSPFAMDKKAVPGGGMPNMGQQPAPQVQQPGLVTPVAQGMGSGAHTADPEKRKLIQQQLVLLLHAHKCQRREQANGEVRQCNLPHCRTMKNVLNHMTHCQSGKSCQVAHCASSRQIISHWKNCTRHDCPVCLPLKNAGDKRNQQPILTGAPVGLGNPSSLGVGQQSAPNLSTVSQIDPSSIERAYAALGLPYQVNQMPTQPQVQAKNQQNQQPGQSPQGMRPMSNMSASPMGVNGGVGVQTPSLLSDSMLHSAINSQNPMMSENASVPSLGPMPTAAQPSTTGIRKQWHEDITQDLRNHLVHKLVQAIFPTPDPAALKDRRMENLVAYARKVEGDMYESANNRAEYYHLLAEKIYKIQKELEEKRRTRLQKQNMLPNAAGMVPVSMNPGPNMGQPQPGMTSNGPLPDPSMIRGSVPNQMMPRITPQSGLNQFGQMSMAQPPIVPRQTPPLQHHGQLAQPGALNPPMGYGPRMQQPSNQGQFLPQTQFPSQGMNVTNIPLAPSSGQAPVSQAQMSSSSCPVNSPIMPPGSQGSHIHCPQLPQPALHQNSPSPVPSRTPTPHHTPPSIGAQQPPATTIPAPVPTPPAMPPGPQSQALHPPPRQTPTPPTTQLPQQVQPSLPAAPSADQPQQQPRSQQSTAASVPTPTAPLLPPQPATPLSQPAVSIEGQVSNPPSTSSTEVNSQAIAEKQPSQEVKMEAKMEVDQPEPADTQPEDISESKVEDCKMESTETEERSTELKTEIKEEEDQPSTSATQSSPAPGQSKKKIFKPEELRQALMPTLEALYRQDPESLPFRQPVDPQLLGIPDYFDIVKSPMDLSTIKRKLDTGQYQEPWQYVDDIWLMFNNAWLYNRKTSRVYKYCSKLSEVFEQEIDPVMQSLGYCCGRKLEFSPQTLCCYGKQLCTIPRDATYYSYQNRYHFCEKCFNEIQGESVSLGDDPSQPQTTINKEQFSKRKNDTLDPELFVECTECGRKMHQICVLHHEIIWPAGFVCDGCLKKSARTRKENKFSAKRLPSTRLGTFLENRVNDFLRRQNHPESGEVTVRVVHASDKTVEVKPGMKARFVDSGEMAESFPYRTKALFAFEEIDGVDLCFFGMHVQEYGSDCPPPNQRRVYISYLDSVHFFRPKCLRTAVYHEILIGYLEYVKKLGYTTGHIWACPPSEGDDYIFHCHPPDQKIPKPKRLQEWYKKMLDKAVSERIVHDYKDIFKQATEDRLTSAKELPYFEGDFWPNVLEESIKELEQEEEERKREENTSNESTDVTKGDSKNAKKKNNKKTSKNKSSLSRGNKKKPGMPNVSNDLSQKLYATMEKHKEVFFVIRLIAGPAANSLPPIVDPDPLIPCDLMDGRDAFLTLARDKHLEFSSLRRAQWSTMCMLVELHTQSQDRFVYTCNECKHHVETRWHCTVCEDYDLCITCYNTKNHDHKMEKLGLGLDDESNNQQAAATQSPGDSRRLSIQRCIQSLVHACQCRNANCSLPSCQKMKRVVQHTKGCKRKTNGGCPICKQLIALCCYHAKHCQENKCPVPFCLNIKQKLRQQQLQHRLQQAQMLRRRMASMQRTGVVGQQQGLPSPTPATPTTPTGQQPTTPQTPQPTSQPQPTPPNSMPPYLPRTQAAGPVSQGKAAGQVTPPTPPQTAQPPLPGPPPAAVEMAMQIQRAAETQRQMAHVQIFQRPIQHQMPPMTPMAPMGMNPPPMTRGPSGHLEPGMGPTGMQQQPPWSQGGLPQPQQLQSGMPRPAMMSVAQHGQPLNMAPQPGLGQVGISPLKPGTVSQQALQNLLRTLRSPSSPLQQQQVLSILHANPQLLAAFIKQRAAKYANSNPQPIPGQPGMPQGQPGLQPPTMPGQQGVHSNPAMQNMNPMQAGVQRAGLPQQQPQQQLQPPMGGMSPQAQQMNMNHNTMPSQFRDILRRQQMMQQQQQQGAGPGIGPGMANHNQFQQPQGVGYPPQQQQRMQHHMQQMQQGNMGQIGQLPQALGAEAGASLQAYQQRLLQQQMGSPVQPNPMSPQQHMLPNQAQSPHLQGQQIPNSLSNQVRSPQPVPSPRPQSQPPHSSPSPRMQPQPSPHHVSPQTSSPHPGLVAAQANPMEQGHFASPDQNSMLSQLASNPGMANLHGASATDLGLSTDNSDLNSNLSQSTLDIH

No constants are given. Whether binding was seen depends on the method and setting. In cells and extracts the contact can be indirect. Some binding calls cover weakened binding; strength is not graded here. For some assays here: Sequences can lack the tags named with a protein.

In publication PMC12254316 one finds binding data, which are given here for eight molecules.

B1: PPM1K, endogenous in mouse kidney tissue (enzyme, UniProt Q8BXN7 30-372)
chain: DHRQATPACYFSTSEARCSRFDPDGSGQPATWDNFGIWDNRIDEPILLPPSIKYGKPIPKISLENVGCASLIGKRKENEDRFGFAQLTEEVLYFAVYDGHGGPAAADFCHTHMEKCVMDLLPREKDLETVLTLAFLEIDKAFASYAHLSADASLLTSGTTATVALLRDGVELVVASVGDSRALLCRKGKPMKLTTDHTPERKDEKERIKKFGGFVAWNSLGQPHVNGRLAMTRSIGDLDLKASGVIAEPETTRIKLYHADDSFLVLTTDGINFMVNSQEICDFVNQCHDPKEAAHSVTEQAIQYGTEDNSTAVVVPFGAWGKYKNSEITFSFSRSFASSGRWA
B1: in experiment [1], the binding entry was “binds”.

B2: Flag-tagged PPM1K, overexpressed in HK2 cells (enzyme, UniProt Q8N3J5 30-372)
chain: DDRRVTPTCHSSTSEPRCSRFDPDGSGSPATWDNFGIWDNRIDEPILLPPSIKYGKPIPKISLENVGCASQIGKRKENEDRFDFAQLTDEVLYFAVYDGHGGPAAADFCHTHMEKCIMDLLPKEKNLETLLTLAFLEIDKAFSSHARLSADATLLTSGTTATVALLRDGIELVVASVGDSRAILCRKGKPMKLTIDHTPERKDEKERIKKCGGFVAWNSLGQPHVNGRLAMTRSIGDLDLKTSGVIAEPETKRIKLHHADDSFLVLTTDGINFMVNSQEICDFVNQCHDPNEAAHAVTEQAIQYGTEDNSTAVVVPFGAWGKYKNSEINFSFSRSFASSGRWA
Regarding B2, the binding result in experiment [2] is on record as “binds”.

B3: PPM1K in HK2 cells (proximity ligation assay) (enzyme, UniProt Q8N3J5 30-372)
chain: DDRRVTPTCHSSTSEPRCSRFDPDGSGSPATWDNFGIWDNRIDEPILLPPSIKYGKPIPKISLENVGCASQIGKRKENEDRFDFAQLTDEVLYFAVYDGHGGPAAADFCHTHMEKCIMDLLPKEKNLETLLTLAFLEIDKAFSSHARLSADATLLTSGTTATVALLRDGIELVVASVGDSRAILCRKGKPMKLTIDHTPERKDEKERIKKCGGFVAWNSLGQPHVNGRLAMTRSIGDLDLKTSGVIAEPETKRIKLHHADDSFLVLTTDGINFMVNSQEICDFVNQCHDPNEAAHAVTEQAIQYGTEDNSTAVVVPFGAWGKYKNSEINFSFSRSFASSGRWA
With B3, in experiment [3], the binding result is on record as “binds”.

B4: PPM1D, Flag-tagged, in vitro translated (enzyme, UniProt O15297 1-605)
chain: MAGLYSLGVSVFSDQGGRKYMEDVTQIVVEPEPTAEEKPSPRRSLSQPLPPRPSPAALPGGEVSGKGPAVAAREARDPLPDAGASPAPSRCCRRRSSVAFFAVCDGHGGREAAQFAREHLWGFIKKQKGFTSSEPAKVCAAIRKGFLACHLAMWKKLAEWPKTMTGLPSTSGTTASVVIIRGMKMYVAHVGDSGVVLGIQDDPKDDFVRAVEVTQDHKPELPKERERIEGLGGSVMNKSGVNRVVWKRPRLTHNGPVRRSTVIDQIPFLAVARALGDLWSYDFFSGEFVVSPEPDTSVHTLDPQKHKYIILGSDGLWNMIPPQDAISMCQDQEEKKYLMGEHGQSCAKMLVNRALGRWRQRMLRADNTSAIVICISPEVDNQGNFTNEDELYLNLTDSPSYNSQETCVMTPSPCSTPPVKSLEEDPWPRVNSKDHIPALVRSNAFSENFLEVSAEIARENVQGVVIPSKDPEPLEENCAKALTLRIHDSLNNSLPIGLVPTNSTNTVMDQKNLKMSTPGQMKAQEIERTPPTNFKRTLEESNSGPLMKKHRRNGLSRSSGAQPASLPTTSQRKNSVKLTMRRRLRGQKKIGNPLLHQHRKTVCVC
With B4, the binding entry in experiment [4] is “binds”.

B5: PPM1K, Flag-tagged, in vitro translated (enzyme, UniProt Q8N3J5 1-372)
chain: MSTAALITLVRSGGNQVRRRVLLSSRLLQDDRRVTPTCHSSTSEPRCSRFDPDGSGSPATWDNFGIWDNRIDEPILLPPSIKYGKPIPKISLENVGCASQIGKRKENEDRFDFAQLTDEVLYFAVYDGHGGPAAADFCHTHMEKCIMDLLPKEKNLETLLTLAFLEIDKAFSSHARLSADATLLTSGTTATVALLRDGIELVVASVGDSRAILCRKGKPMKLTIDHTPERKDEKERIKKCGGFVAWNSLGQPHVNGRLAMTRSIGDLDLKTSGVIAEPETKRIKLHHADDSFLVLTTDGINFMVNSQEICDFVNQCHDPNEAAHAVTEQAIQYGTEDNSTAVVVPFGAWGKYKNSEINFSFSRSFASSGRWA
Take B5: in experiment [4], the binding entry is recorded as “binds”.

B6: PPP6C, Flag-tagged, in vitro translated (enzyme, UniProt O00743 1-305)
chain: MAPLDLDKYVEIARLCKYLPENDLKRLCDYVCDLLLEESNVQPVSTPVTVCGDIHGQFYDLCELFRTGGQVPDTNYIFMGDFVDRGYYSLETFTYLLALKAKWPDRITLLRGNHESRQITQVYGFYDECQTKYGNANAWRYCTKVFDMLTVAALIDEQILCVHGGLSPDIKTLDQIRTIERNQEIPHKGAFCDLVWSDPEDVDTWAISPRGAGWLFGAKVTNEFVHINNLKLICRAHQLVHEGYKFMFDEKLVTVWSAPNYCYRCGNIASIMVFKDVNTREPKLFRAVPDSERVIPPRTTTPYFL
B6: the binding result in experiment [4] was “binds”.

B7: PPM1M, Flag-tagged, in vitro translated (enzyme, UniProt Q96MI6 1-459)
chain: MSAGWFRRRFLPGEPLPAPRPPGPHASPVPYRRPRFLRGSSSSPGAADASRRPDSRPVRSPARGRTLPWNAGYAEIINAEKSEFNEDQAACGKLCIRRCEFGAEEEWLTLCPEEFLTGHYWALFDGHGGPAAAILAANTLHSCLRRQLEAVVEGLVATQPPMHLNGRCICPSDPQFVEEKGIRAEDLVIGALESAFQECDEVIGRELEASGQMGGCTALVAVSLQGKLYMANAGDSRAILVRRDEIRPLSFEFTPETERQRIQQLAFVYPELLAGEFTRLEFPRRLKGDDLGQKVLFRDHHMSGWSYKRVEKSDLKYPLIHGQGRQARLLGTLAVSRGLGDHQLRVLDTNIQLKPFLLSVPQVTVLDVDQLELQEDDVVVMATDGLWDVLSNEQVAWLVRSFLPGNQEDPHRFSKLAQMLIHSTQGKEDSLTEEGQVSYDDVSVFVIPLHSQGQESSDH
In the case of B7, the binding result in experiment [4] was “binds”.

B8: PPEF1, Flag-tagged, in vitro translated (enzyme, UniProt O14829 1-653)
chain: MGCSSSSTKTRRSDTSLRAALIIQNWYRGYKARLKARQHYALTIFQSIEYADEQGQMQLSTFFSFMLENYTHIHKEELELRNQSLESEQDMRDRWDYVDSIDVPDSYNGPRLQFPLTCTDIDLLLEAFKEQQILHAHYVLEVLFETKKVLKQMPNFTHIQTSPSKEVTICGDLHGKLDDLFLIFYKNGLPSERNPYVFNGDFVDRGKNSIEILMILCVSFLVYPNDLHLNRGNHEDFMMNLRYGFTKEILHKYKLHGKRILQILEEFYAWLPIGTIVDNEILVIHGGISETTDLNLLHRVERNKMKSVLIPPTETNRDHDTDSKHNKVGVTFNAHGRIKTNGSPTEHLTEHEWEQIIDILWSDPRGKNGCFPNTCRGGGCYFGPDVTSKILNKYQLKMLIRSHECKPEGYEICHDGKVVTIFSASNYYEEGSNRGAYIKLCSGTTPRFFQYQVTKATCFQPLRQRVDTMENSAIKILRERVISRKSDLTRAFQLQDHRKSGKLSVSQWAFCMENILGLNLPWRSLSSNLVNIDQNGNVEYMSSFQNIRIEKPVQEAHSTLVETLYRYRSDLEIIFNAIDTDHSGLISVEEFRAMWKLFSSHYNVHIDDSQVNKLANIMDLNKDGSIDFNEFLKAFYVVHRYEDLMKPDVTNLG
For the molecule B8, in experiment [4], the binding entry is “binds”.
